Here are results for 1 substance from publication PMC9731691.

Chains of the proteins cited; added tags and fusions are not shown.
UniProt P35222: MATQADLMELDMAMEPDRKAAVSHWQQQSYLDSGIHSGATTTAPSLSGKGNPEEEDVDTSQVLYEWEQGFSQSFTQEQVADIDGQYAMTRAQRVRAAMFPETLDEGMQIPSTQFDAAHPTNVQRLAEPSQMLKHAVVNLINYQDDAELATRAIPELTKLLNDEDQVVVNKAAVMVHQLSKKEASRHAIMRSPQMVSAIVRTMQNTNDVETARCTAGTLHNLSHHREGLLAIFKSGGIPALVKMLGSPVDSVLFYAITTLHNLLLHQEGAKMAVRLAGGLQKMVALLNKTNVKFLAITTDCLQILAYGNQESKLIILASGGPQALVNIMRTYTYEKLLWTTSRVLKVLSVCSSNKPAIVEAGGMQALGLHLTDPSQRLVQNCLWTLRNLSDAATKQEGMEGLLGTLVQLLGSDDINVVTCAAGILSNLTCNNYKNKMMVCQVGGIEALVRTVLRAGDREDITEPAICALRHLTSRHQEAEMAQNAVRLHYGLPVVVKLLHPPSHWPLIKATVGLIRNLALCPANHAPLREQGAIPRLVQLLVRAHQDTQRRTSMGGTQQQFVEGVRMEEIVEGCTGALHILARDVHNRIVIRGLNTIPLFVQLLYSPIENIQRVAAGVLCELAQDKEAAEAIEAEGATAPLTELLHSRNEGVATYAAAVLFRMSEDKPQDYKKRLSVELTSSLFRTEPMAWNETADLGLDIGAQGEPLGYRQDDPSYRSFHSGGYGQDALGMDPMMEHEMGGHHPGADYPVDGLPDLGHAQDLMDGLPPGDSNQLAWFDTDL

These are yes or no findings as the source states them, for the method shown. Binding seen in cells or lysates may run through a third protein. Some binding calls cover weakened binding; strength is not graded here.

This assay addresses T1, Ran‐binding protein 3 (RanBP3) (human) (UniProt Q9H6Z4).
T1 sequence: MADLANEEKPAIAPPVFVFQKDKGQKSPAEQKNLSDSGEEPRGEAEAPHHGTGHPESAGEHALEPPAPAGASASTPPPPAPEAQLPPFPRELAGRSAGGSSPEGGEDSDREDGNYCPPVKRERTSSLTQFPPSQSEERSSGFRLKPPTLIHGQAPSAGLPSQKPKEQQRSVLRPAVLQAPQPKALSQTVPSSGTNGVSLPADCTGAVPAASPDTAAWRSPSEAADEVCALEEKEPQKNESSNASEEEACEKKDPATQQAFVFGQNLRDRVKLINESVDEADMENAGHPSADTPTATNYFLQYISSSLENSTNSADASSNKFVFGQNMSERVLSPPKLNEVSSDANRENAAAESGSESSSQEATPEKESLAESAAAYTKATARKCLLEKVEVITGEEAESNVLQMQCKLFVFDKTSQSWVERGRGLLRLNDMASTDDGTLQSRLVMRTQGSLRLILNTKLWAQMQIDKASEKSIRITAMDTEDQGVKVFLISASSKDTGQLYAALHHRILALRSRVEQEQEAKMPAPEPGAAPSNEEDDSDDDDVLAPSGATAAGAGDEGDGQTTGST
Kind of assay: co-IP; CRC cells cotransfected with β-catenin- and RanBP3-expressing plasmids, with or without NU2058; lysate precleared with IgG and protein A/G Sepharose beads at 4 °C for 1 h; primary antibody overnight at 4 °C, beads 4 h, washed with PBS three times; Western blotting; which protein was precipitated not given.

Consider β‐catenin (from UniProt P35222 1-781), for which the binding entry was “binds”.
